Experimental data: patent US20020198219A1, “2-pyridinamine compositions and related methods” (priority 2000, published 2002)
At least one structure is not confirmed: it was looked up by name or label, or the drawing left a doubt.

Tests used:
IP3 turnover = details: from the literature; read-out: Potency, IP3 turnover; cited from earlier work
[1] = system: differentiated P19 neurons; test: Differentiated P19 excitotoxicity assay (glutamate/glycine-induced death, Alamar Blue); type: cell-based, murine; details: 3 mM glutamate + 1 mM glycine; mean of three separate curves
Description: Alamar Blue fluorescence, an indicator of cell viability, was used to determine cell viability after an NMDA-induced cytotoxic insult. […] However, since raw fluorescence counts vary from experiment to experiment, FIGS. 2A, 2B, and 2C are expressed as a percent of control.
Glutamate toxicity dose response in the presence of a constant 1 mM glycine concentration was measured in the differentiated P19 neurons. The curve generated through the data points is the average of 6 separate dose response curves. Data points are represented as the percent of control cells ±standard error. % control=(([Glutamate]exp−[Glutamate]max)/(Controlvehicle−[Glutamate]max))×100. […]
Cell viability was determined. Compounds that prevented excitotoxicity were determined by measuring the percentage of viable cells compared to differentiated P19 cells that were not presented with a toxic insult (Table I).
Cell viability was measured using two methods. The first method was a confocal, single-cell fluorescence imaging-based method using the live cell dye carboxy-fluorescein diacetate (CFDA). […] CFDA fluorescence was measured using a modified Attofluor Imager device (Atto Instruments, Rockville Pike, Md.). […]
The second method for measuring cell viability was a plate reader method. […] Baseline fluorescence counts were read at room temperature in a Wallac plate reader immediately after addition of Alamar blue. […]

For [Li] [Lithium], the Ki (IP3 turnover) is given as about 500 nM and the “IC50 for Neuroprotection [lower-upper 95% C.I.]” value [1] is given as “Ineffective”.
